Source: ChEMBL document CHEMBL4513141, “CO-ADD screening of NIH (USA) - Clinical Collection” (2021)
The list shows a part of the results. Entries with a potency or affinity are not part of this list.

Each molecule was assayed on Acinetobacter baumannii. Settings: Concentration 20 uM; ASSAY_TEST Inhibition of Bacterial Growth; detection method Absorption (OD600); MEDIA CAMHB; plate type 384well; NBS; CORNING #3640; time 18 hr.
For `CCOC(=O)[C@@H](CCc1ccccc1)N[C@@H](C)C(=O)N1CCC[C@H]1C(=O)O.O=C(O)/C=C\C(=O)O`, the Inhibition was 21.08%. For `CC(=O)OCC(=O)C12OC3(CCCC3)OC1CC1C3CCC4=CC(=O)C=CC4(C)C3(F)C(O)CC12C` (stereo not drawn), the Inhibition was 17.04%. Molecule `CC(CCc1ccccc1)NCC(O)c1ccc(O)c(C(N)=O)c1.Cl` (stereo not drawn) [LABETALOL HYDROCHLORIDE] has an Inhibition of 25.37%. `COc1cc2nc(N(C)CCCNC(=O)C3CCCO3)nc(N)c2cc1OC` (stereo not drawn) [ALFUZOSIN] gave an Inhibition of 19.22%. With `N[C@@H]1CONC1=O` [CYCLOSERINE] the Inhibition was 25.21%. Molecule `O=C(O)COCCN1CCN(C(c2ccccc2)c2ccc(Cl)cc2)CC1` (stereo not drawn) [CETIRIZINE] has an Inhibition of 7.09%. Work on `CC(=O)OCC(=O)[C@@]1(O)CC[C@H]2[C@@H]3CCC4=CC(=O)CC[C@]4(C)[C@H]3C(=O)C[C@@]21C` [CORTISONE ACETATE] yielded an Inhibition of 30.1%. In the case of `CC1CNc2c(cccc2S(=O)(=O)N[C@@H](CCCNC(=N)N)C(=O)N2CC[C@@H](C)C[C@@H]2C(=O)O)C1` (stereo partly drawn) [ARGATROBAN], the Inhibition is reported as 26.1%. `O=C1CN(/N=C/c2ccc(-c3ccc([N+](=O)[O-])cc3)o2)C(=O)[N-]1.[Na+]` [DANTROLENE SODIUM] gave an Inhibition of 9.64%. Work on `O=c1cnn([C@@H]2O[C@H](CO)[C@@H](O)[C@H]2O)c(=O)[nH]1` [6-AZAURIDINE] yielded an Inhibition of 9.01%. With `N[C@@H](Cc1cc(I)c(Oc2cc(I)c(O)c(I)c2)c(I)c1)C(=O)O` [LEVOTHYROXINE] the Inhibition was 5.92%. In the case of `CCCN(CCC)S(=O)(=O)c1ccc(C(=O)O)cc1` [PROBENECID], the Inhibition is reported as 30.42%. `O=C(O)c1cc2ccccc2c(Cc2c(O)c(C(=O)O)cc3ccccc23)c1O.OCCOCCN1CCN(C(c2ccccc2)c2ccc(Cl)cc2)CC1` [HYDROXYZINE PAMOATE] gave an Inhibition of 25.25%. In the case of `CCCc1cc(=O)[nH]c(=S)[nH]1` [PROPYLTHIOURACIL], the Inhibition is reported as 26.31%. In the case of `Cc1onc(-c2ccccc2)c1-c1ccc(S(N)(=O)=O)cc1` [VALDECOXIB], the Inhibition is reported as 22.84%. `Cc1sc(N)c(C(=O)c2cccc(C(F)(F)F)c2)c1C` was tested, and the Inhibition was 4.19%. Molecule `CC(C)(C)NC(=O)[C@@H]1C[C@@H]2CCCC[C@@H]2CN1C[C@@H](O)[C@H](Cc1ccccc1)NC(=O)[C@H](CC(N)=O)NC(=O)c1ccc2ccccc2n1.CS(=O)(=O)O` [SAQUINAVIR MESYLATE] has an Inhibition of 3.89%. `Nc1nc(Cl)nc2c1ncn2[C@H]1C[C@H](O)[C@@H](CO)O1` [CLADRIBINE] showed an Inhibition of 27.7%. Work on `CC(C)NCC(O)COc1ccc(CCOCC2CC2)cc1.Cl` (stereo not drawn) [BETAXOLOL HYDROCHLORIDE] yielded an Inhibition of 26.37%. Work on `COc1ccc2c(c1)c(CC(=O)O)c(C)n2C(=O)c1ccc(Cl)cc1.O` yielded an Inhibition of 9.56%. Work on `CC12CC3CC(C)(C1)CC(N)(C3)C2.Cl` [MEMANTINE HYDROCHLORIDE] yielded an Inhibition of 21.12%. In the case of `COc1cc2c(cc1OC)C(=O)C(CC1CCN(Cc3ccccc3)CC1)C2.Cl` (stereo not drawn) [DONEPEZIL HYDROCHLORIDE], the Inhibition is reported as 15.08%. `CCC(=O)O[C@]1(C(=O)CCl)[C@@H](C)C[C@H]2[C@@H]3CCC4=CC(=O)C=C[C@]4(C)[C@@]3(F)[C@@H](O)C[C@@]21C` [CLOBETASOL PROPIONATE] gave an Inhibition of 5.15%. `CC(C)c1ccc2oc3nc(N)c(C(=O)O)cc3c(=O)c2c1` [AMLEXANOX] was tested, and the Inhibition was 18.03%. `COC(=O)Nc1nc2cc(C(=O)c3ccccc3)ccc2[nH]1` [MEBENDAZOLE] gave an Inhibition of 19.38%. Molecule `CN(C)CCCSc1ccccc1NC(=O)/C=C/c1ccccc1.Cl.O` has an Inhibition of 20.68%. `CC(=O)OCC(=O)[C@@]1(O)CC[C@H]2[C@@H]3CCC4=CC(=O)CC[C@]4(C)[C@H]3[C@@H](O)C[C@@]21C` [HYDROCORTISONE ACETATE] showed an Inhibition of 22.72%. For `CC#C[C@]1(O)CC[C@H]2[C@@H]3CCC4=CC(=O)CCC4=C3[C@@H](c3ccc(N(C)C)cc3)C[C@@]21C` [MIFEPRISTONE], the Inhibition was 17.82%. In the case of `Nc1ccc2cn[nH]c2c1`, the Inhibition is reported as 8.02%. In the case of `Cl.O[C@@H](c1cc(C(F)(F)F)nc2c(C(F)(F)F)cccc12)[C@H]1CCCCN1`, the Inhibition is reported as 32.5%. Work on `CC[C@]1(O)C[C@@H]2CN(CCc3c([nH]c4ccccc34)[C@@](C(=O)OC)(c3cc4c(cc3OC)N(C)[C@H]3[C@@](O)(C(N)=O)[C@H](O)[C@]5(CC)C=CCN6CC[C@]43[C@@H]65)C2)C1.O=S(=O)(O)O` [VINDESINE SULFATE] yielded an Inhibition of 7.96%. `COc1ccccc1N1CCN(CCCNc2cc(=O)n(C)c(=O)n2C)CC1.Cl` [URAPIDIL HYDROCHLORIDE] gave an Inhibition of 26.15%. `Cl.O=C(c1ccc(OCCN2CCCCC2)cc1)c1c(-c2ccc(O)cc2)sc2cc(O)ccc12` [RALOXIFENE HYDROCHLORIDE] gave an Inhibition of 22.38%.
